These are yes or no findings as the source states them, for the method shown. Some binding calls cover weakened binding; strength is not graded here.
What was measured:
[1] = biological target: Cynomolgus monkey CCR8 (Cynomolgus monkey) (UniProt G7NYJ2); experiment: flow cytometry and immunofluorescence on cells, 0.0032 to 50 µg/mL
[2] = biological target: Cynomolgus monkey CCR8 (Cynomolgus monkey) (UniProt G7NYJ2); experiment: method not named
[3] = biological target: human CCR8 N-terminal peptides and fusion proteins (human) (UniProt P51685); experiment: SPR; CCR8 N-terminal peptides and fusion proteins, 1.56 to 200 nM
[4] = biological target: Cynomolgus monkey CCR8 (Cynomolgus monkey) (UniProt G7NYJ2); experiment: immunohistochemistry on CCR8-positive and negative cells

Sequences of proteins named here, by UniProt entry; tags and fusion partners are left off. A change or cut given only in a name is not applied to a line headed by its entry. A line that says so, or that is headed by a name, gives the form on record, which may keep a tag or linker. Residues count along the entry.
Cynomolgus monkey CCR8 (G7NYJ2, form named): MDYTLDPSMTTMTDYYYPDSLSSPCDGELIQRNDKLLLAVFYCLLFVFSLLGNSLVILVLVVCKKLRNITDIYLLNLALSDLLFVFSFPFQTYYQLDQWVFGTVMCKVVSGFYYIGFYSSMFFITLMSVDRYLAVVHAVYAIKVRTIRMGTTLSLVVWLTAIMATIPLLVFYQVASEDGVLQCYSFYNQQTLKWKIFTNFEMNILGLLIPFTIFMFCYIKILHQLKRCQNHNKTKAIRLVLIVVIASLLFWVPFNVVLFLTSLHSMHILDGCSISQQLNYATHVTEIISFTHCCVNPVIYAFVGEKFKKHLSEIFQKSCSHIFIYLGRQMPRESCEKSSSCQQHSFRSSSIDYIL
UniProt P51685, residues 1-35: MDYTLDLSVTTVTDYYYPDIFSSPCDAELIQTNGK

| binding [1] | binding [2] | binding [3] | binding [4] | Binder |
| --- | --- | --- | --- | --- |
| binds | binds | binds |  | TPP-23411 (afucosylated) (antibody, human IgG1, lambda, V domains shown, afucosylated Fc glycan) VH: EVQLLESGGGLVQPGGSLRLSCAASGFTFSSYGMHWVRQAPGKGLEWVSAINWNGGSTGYADSVKGRFTISRDNSKNTLYLQMNSLRAEDTAVYYCARGHHSGYDGRFFDYWGQGTLVTVSS VL: QSVLTQPPSVSGAPGQRVTISCTGSSSNIGAGYNVHWYQQLPGTAPKLLIYTNNRRPSGVPDRFSGSKSGTSASLAISGLRSEDEADYYCAAWDASLSGWVFGGGTKLTVLG |
|  |  |  | binds | TPP-23411-FITC (antibody, V domains shown, FITC-conjugated (sites not given)) VH: EVQLLESGGGLVQPGGSLRLSCAASGFTFSSYGMHWVRQAPGKGLEWVSAINWNGGSTGYADSVKGRFTISRDNSKNTLYLQMNSLRAEDTAVYYCARGHHSGYDGRFFDYWGQGTLVTVSS VL: QSVLTQPPSVSGAPGQRVTISCTGSSSNIGAGYNVHWYQQLPGTAPKLLIYTNNRRPSGVPDRFSGSKSGTSASLAISGLRSEDEADYYCAAWDASLSGWVFGGGTKLTVLG |

— patent publication US20250326851A1
